How the values were obtained:
[1] = Fmoc solid-phase peptide synthesis; H-Leu-2-Cl-Trt resin; TBTU/HOBt with diisopropylethylamine; DIC/HOBt for Fmoc-Gly-Gly-OH; conditions: whole synthesis
[2] = general procedure: Fmoc solid-phase peptide synthesis; H-Leu-2-Cl-Trt resin; TBTU/HOBt with diisopropylethylamine; DIC/HOBt for Fmoc-Gly-Gly-OH; conditions: whole synthesis
[3] = Fmoc solid-phase peptide synthesis; H-Leu-Wang resin; TBTU/HOBt with diisopropylethylamine; DIC/HOBt for Fmoc-Gly-Gly-OH; conditions: whole synthesis, scale 250 g resin
[4] = general procedure: Fmoc solid-phase peptide synthesis; H-Leu-Wang resin; TBTU/HOBt with diisopropylethylamine; DIC/HOBt for Fmoc-Gly-Gly-OH; conditions: whole synthesis

Bivalirudin
crude mass ([1]; scale 3.0 Kg resin): 4.9 kg | crude mass ([1]; scale 4.5 Kg resin): 7.6 kg | final HPLC purity ([2]; run 1): >99.0% | final HPLC purity ([2]; run 3): >97.5% | isolated mass ([2]; scale 3.0 Kg resin): 960 g | isolated mass ([2]; scale 4.5 Kg resin): 1.7 kg | crude mass [3]: 470 g | final HPLC purity ([4]; HPLC, run 2): >99.0% | isolated mass ([4]; scale 250 g resin): 92 g

From patent US20110160431 (published 2011)
